# In publication PMC8079021:
# Sequences of proteins named here, by UniProt entry; tags and fusion partners are left off. A change or cut given only in a name is not applied to a line headed by its entry. Residues count along the entry.
# UniProt Q03178: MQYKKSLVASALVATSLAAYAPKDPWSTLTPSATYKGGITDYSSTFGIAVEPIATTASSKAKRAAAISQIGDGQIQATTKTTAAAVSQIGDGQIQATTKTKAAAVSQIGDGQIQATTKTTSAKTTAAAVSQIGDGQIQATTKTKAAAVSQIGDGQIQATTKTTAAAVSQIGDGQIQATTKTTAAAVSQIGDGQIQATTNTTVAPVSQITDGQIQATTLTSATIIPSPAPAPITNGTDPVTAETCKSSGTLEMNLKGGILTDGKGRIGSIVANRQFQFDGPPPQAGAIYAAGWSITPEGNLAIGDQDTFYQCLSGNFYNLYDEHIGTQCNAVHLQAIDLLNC
# UniProt P0CS90, residues 24-654: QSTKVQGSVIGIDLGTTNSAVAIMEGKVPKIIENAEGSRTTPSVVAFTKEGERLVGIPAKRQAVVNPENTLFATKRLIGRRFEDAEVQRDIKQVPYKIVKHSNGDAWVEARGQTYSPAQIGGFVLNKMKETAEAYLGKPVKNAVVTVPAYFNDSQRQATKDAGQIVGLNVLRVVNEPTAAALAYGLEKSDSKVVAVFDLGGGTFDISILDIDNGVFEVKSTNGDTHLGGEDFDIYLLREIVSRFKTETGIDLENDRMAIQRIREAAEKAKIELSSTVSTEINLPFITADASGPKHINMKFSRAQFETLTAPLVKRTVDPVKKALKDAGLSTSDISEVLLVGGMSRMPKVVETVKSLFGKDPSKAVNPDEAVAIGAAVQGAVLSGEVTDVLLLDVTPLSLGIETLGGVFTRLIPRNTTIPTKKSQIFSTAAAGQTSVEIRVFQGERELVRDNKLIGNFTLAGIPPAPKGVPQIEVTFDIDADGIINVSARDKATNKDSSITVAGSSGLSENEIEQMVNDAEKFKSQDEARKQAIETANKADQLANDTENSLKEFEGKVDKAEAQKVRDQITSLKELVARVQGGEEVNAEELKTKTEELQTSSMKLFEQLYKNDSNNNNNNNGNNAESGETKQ
# These are yes or no findings as the source states them, for the method shown. Binding seen in cells or lysates may run through a third protein. A yes stands for co-enrichment or nearness to the bait. Other partners may have been found. For some assays here: No binding means not detected with the bait. Tags and fused reporters may be left off the sequences shown.
# T1: Mrn1 (endogenous MRN1 gene tagged with Sbp, TEV protease cleavage site and Halo-tag) (Saccharomyces cerevisiae) (UniProt Q08925)
# T1 sequence: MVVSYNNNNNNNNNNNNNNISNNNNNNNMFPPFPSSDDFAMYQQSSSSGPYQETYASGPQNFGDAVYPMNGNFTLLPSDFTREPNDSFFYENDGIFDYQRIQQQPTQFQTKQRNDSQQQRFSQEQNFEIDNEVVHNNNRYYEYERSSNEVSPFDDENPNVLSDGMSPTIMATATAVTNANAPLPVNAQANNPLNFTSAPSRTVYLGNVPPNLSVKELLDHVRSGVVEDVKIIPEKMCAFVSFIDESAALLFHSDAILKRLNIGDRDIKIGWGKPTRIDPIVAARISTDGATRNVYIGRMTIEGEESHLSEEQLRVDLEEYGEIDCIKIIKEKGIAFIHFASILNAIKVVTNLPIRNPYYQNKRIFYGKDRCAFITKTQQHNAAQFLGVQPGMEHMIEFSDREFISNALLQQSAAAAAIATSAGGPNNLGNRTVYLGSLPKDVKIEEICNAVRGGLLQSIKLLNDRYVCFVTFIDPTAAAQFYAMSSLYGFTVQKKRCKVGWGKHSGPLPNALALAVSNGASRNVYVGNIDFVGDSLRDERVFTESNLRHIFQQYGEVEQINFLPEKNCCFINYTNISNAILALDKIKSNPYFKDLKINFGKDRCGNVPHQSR
# Target: T1, Mrn1 (endogenous MRN1 gene tagged with Sbp, TEV protease cleavage site and Halo-tag) (Saccharomyces cerevisiae)
# Assay: condition: only lysate of cells in fermentative growth; affinity purification with mass spectrometry; as a1, lysate of cells in fermentative growth only
row,binding,Molecule
1,no binding,"Lsm1 (protein, UniProt P47017 1-172) MSANSKDRNQSNQDAKRQQQNFPKKISEGEADLYLDQYNFTTTAAIVSSVDRKIFVLLRDGRMLFGVLRTFDQYANLILQDCVERIYFSEENKYAEEDRGIFMIRGENVVMLGEVDIDKEDQPLEAMERIPFKEAWLTKQKNDEKRFKEETHKGKKMARHGIVYDFHKSDMY"

# Target: T1, Mrn1 (endogenous MRN1 gene tagged with Sbp, TEV protease cleavage site and Halo-tag) (Saccharomyces cerevisiae)
# Assay: affinity purification with mass spectrometry; lysates of cells in rich (fermentative) or low-glucose/respiratory media, cryogrinding, cross-linked ex vivo with 20 mM EDC; Halo-tagged Mrn1 captured covalently on Halo Magna beads 3 h at 4°C; washes with 8 M urea, 50 mM HEPES pH 7.5, 150 mM NaCl, 1% Triton X-100; TEV elution; TMT quantitative LC-MS against an mCherry control; single replicates
row,binding,Molecule
1,binds,Pir1 (from UniProt Q03178)
2,binds,Ssc1 (from UniProt P0CS90 24-654)
3,binds,"Lsm1 (protein, UniProt P47017 1-172) MSANSKDRNQSNQDAKRQQQNFPKKISEGEADLYLDQYNFTTTAAIVSSVDRKIFVLLRDGRMLFGVLRTFDQYANLILQDCVERIYFSEENKYAEEDRGIFMIRGENVVMLGEVDIDKEDQPLEAMERIPFKEAWLTKQKNDEKRFKEETHKGKKMARHGIVYDFHKSDMY"
4,binds,"Ecm33 (protein, UniProt P38248 20-406) ANSTTSIPSSCSIGTSATATAQADLDKISGCSTIVGNLTITGDLGSAALASIQEIDGSLTIFNSSSLSSFSADSIKKITGDLNMQELIILTSASFGSLQEVDSINMVTLPAISTFSTDLQNANNIIVSDTTLESVEGFSTLKKVNVFNINNNRYLNSFQSSLESVSDSLQFSSNGDNTTLAFDNLVWANNITLRDVNSISFGSLQTVNASLGFINNTLPSLNLTQLSKVGQSLSIVSNDELSKAAFSNLTTVGGGFIIANNTQLKVIDGFNKVQTVGGAIEVTGNFSTLDLSSLKSVRGGANFDSSSSNFSCNALKKLQSNGAIQGDSFVCKNGATSTSVKLSSTSTESSKSSATSSASSSGDASNAQANVSASASSSSSSSKKSKG"
5,binds,"Tim23 (protein, UniProt P32897 1-222) MSWLFGDKTPTDDANAAVGGQDTTKPKELSLKQSLGFEPNINNIISGPGGMHVDTARLHPLAGLDKGVEYLDLEEEQLSSLEGSQGLIPSRGWTDDLCYGTGAVYLLGLGIGGFSGMMQGLQNIPPNSPGKLQLNTVLNHITKRGPFLGNNAGILALSYNIINSTIDALRGKHDTAGSIGAGALTGALFKSSKGLKPMGYSSAMVAAACAVWCSVKKRLLEK"
6,binds,"Zeo1 (protein, UniProt Q08245 1-113) MSEIQNKAETAAQDVQQKLEETKESLQNKGQEVKEQAEASIDNLKNEATPEAEQVKKEEQNIADGVEQKKTEAANKVEETKKQASAAVSEKKETKKEGGFLKKLNRKIASIFN"
7,binds,"Tom22 (protein, UniProt P49334 1-152) MVELTEIKDDVVQLDEPQFSRNQAIVEEKASATNNDVVDDEDDSDSDFEDEFDENETLLDRIVALKDIVPPGKRQTISNFFGFTSSFVRNAFTKSGNLAWTLTTTALLLGVPLSLSILAEQQLIEMEKTFDLQSDANNILAQGEKDAAATAN"

# Target: T1, Mrn1 (endogenous MRN1 gene tagged with Sbp, TEV protease cleavage site and Halo-tag) (Saccharomyces cerevisiae)
# Assay: affinity purification with mass spectrometry; as a1, lysate of cells in fermentative growth only
row,binding,Molecule
1,no binding,"Lsm4 (protein, UniProt P40070 1-187) MLPLYLLTNAKGQQMQIELKNGEIIQGILTNVDNWMNLTLSNVTEYSEESAINSEDNAESSKAVKLNEIYIRGTFIKFIKLQDNIIDKVKQQINSNNNSNSNGPGHKRYYNNRDSNNNRGNYNRRNNNNGNSNRRPYSQNRQYNNSNSSNINNSINSINSNNQNMNNGLGGSVQHHFNSSSPQKVEF"
2,no binding,"Lsm6 (protein, UniProt Q06406 1-86) MSGKASTEGSVTTEFLSDIIGKTVNVKLASGLLYSGRLESIDGFMNVALSSATEHYESNNNKLLNKFNSDVFLRGTQVMYISEQKI"
3,no binding,"Lsm2 (protein, UniProt P38203 1-95) MLFFSFFKTLVDQEVVVELKNDIEIKGTLQSVDQFLNLKLDNISCTDEKKYPHLGSVRNIFIRGSTVRYVYLNKNMVDTNLLQDATRREVMTERK"
4,no binding,"Lsm3 (protein, UniProt P57743 1-89) METPLDLLKLNLDERVYIKLRGARTLVGTLQAFDSHCNIVLSDAVETIYQLNNEELSESERRCEMVFIRGDTVTLISTPSEDDDGAVEI"
5,no binding,"Lsm7 (protein, UniProt P53905 1-115) MHQQHSKSENKPQQQRKKFEGPKREAILDLAKYKDSKIRVKLMGGKLVIGVLKGYDQLMNLVLDDTVEYMSNPDDENNTELISKNARKLGLTVIRGTILVSLSSAEGSDVLYMQK"
6,no binding,"Lsm5 (protein, UniProt P40089 1-93) MSLPEILPLEVIDKTINQKVLIVLQSNREFEGTLVGFDDFVNVILEDAVEWLIDPEDESRNEKVMQHHGRMLLSGNNIAILVPGGKKTPTEAL"
